Measured values taken from US20210261642A1, “SOLUBILITY OF GLP-1 PEPTIDE” (Novo Nordisk A/S, priority 2017, published 2021).
This continues a long series; more values of the same kind are listed elsewhere.

Assay: Assay (I): Determination of Solubility (96-well plate, pH 3.0-11.0, organic solvent 0-70% w/w, UV absorption at 280 nm)
Assay type: physicochemical
Details: Method 1
Procedure: Assay (I): Determination of Solubility
96-Well Plate Preparation
96-well plates containing target peptide in a solid form were prepared in one of two ways:
Method 1 (evaporation): Addition of 100 μl stock solution of said peptide at a concentration of 4-6 mg/ml to each well of a 96-well half area plate (150 μl well size). Subsequently the solvent was evaporated by applying a vacuum until the solvent was completely removed.
Method 2 (precipitation): Addition of a certain volume of a stock solution of said peptide containing to each well of a 96-well half area plate followed by the addition of a certain volume of concentrated phosphoric acid to obtain a pH of 4.6 followed by addition of a certain volume of ethanol resulting in a final ethanol concentration of 20% v/v. Subsequently the plate was stored at 4° C. for 1 h and then centrifuged at 4,000 rpm for 20 min. Finally the supernatant was removed. The concentration of the stock solution was chosen in a way that the final amount of peptide after supernatant removal was >0.4 mg per well.
In both cases the stock solution was prepared by adding de-ionized water to a certain amount of powder of said peptide followed by a stepwise addition of small amounts of a concentrated sodium hydroxide solution until said peptide was completely in solution.
To determine solubility of a target peptide at different pH and organic solvent concentrations, two different buffer systems were used in independent experiments to cover the whole range from pH 3.0 to pH 11.0. Buffer system 1 covers pH 3.0-7.5 and buffer system 2 covers pH 7.5-11.0. For each buffer system 96 different solvent compositions were premixed in the following way: • 1. A low pH buffer (adjusted to either pH 3.0 or pH 7.5) and a high pH buffer (adjusted to either pH 7.5 or pH 11.0) were mixed at 8 different ratios to obtain values between pH 3.0 and pH 7.5 or pH 7.5 and pH 11.0, respectively. The total volume after mixing was 300 μl. • 2. 12 different amounts of organic solvent were then added to these buffers to obtain organic solvent (e.g. ethanol) concentrations between 0 and 70% w/w. • 3. Water was then added to obtain a total weight of 1.0 g of solvent in each well.
After preparing the 96 different solvent systems, 100 μl of each system was transferred to the 96-well plate containing the solid form of the target peptide (prepared as described in the section “96-well plate preparation”). The plate was then stored at a given temperature (between 5° C. and 70° C.) for a given time on a rotating shaker set to 400 rpm. At regular time intervals the plate was centrifuged (4,000 rpm for 10 min) and a 10 μl sample was taken from each well. The samples were then analysed by UV absorption at 280 nm for peptide quantification. Peptide concentration results are given as UV absorption at 280 nm of the sample subtracted UV absorption at 280 nm of a well comprising 10 μl water.
The buffers used were as follows: • Buffer system 1 (for the pH range from pH 3.0-7.5)
• Buffer system 2 (for the pH ranae from pH 7.5-11.0)
Solubility of liraglutide was determined using Assay (I) described herein. Liraglutide was prepared using Method 1 (evaporation) or Method 2 (precipitation) as described in subsection “96-well plate preparation”.

[1] = MeCN 12.7% w/w, pH 10.0, 70° C.
[2] = MeCN 12.7% w/w, pH 10.5, 70° C.
[3] = MeCN 12.7% w/w, pH 11.0, 70° C.

SMILES: CCCCCCCCCCCCCCCC(=O)N[C@@H](CCC(=O)NCCCC[C@H](NC(=O)[C@H](C)NC(=O)[C@H](C)NC(=O)[C@H](CCC(N)=O)NC(=O)CNC(=O)[C@H](CCC(=O)O)NC(=O)[C@H](CC(C)C)NC(=O)[C@H](Cc1ccc(O)cc1)NC(=O)[C@H](CO)NC(=O)[C@H](CO)NC(=O)[C@@H](NC(=O)[C@H](CC(=O)O)NC(=O)[C@H](CO)NC(=O)[C@@H](NC(=O)[C@H](Cc1ccccc1)NC(=O)[C@@H](NC(=O)CNC(=O)[C@H](CCC(=O)O)NC(=O)[C@H](C)NC(=O)[C@@H](N)Cc1cnc[nH]1)[C@@H](C)O)[C@@H](C)O)C(C)C)C(=O)N[C@@H](CCC(=O)O)C(=O)N[C@@H](Cc1ccccc1)C(=O)N[C@H](C(=O)N[C@@H](C)C(=O)N[C@@H](Cc1c[nH]c2ccccc12)C(=O)N[C@@H](CC(C)C)C(=O)N[C@H](C(=O)N[C@@H](CCCNC(=N)N)C(=O)NCC(=O)N[C@@H](CCCNC(=N)N)C(=O)NCC(=O)O)C(C)C)[C@@H](C)CC)C(=O)O [liraglutide, Arg34,Lys26-(N-epsilon-(gamma-L-glutamyl(N-alfa-hexadecanoyl)))-GLP-1(7-37)]
- Peptide concentration after 24 h (MeCN 12.7% w/w, pH 6.9, 5° C.): >4.0 mg/mL
- Peptide concentration after 5 min (MeCN 12.7% w/w, pH 6.9, 70° C.): 3.2 mg/mL
- Peptide concentration after 180 min (MeCN 12.7% w/w, pH 6.9, 70° C.): >4.0 mg/mL
- Peptide concentration after 5 min (MeCN 12.7% w/w, pH 6.9, RT): 1.2 mg/mL
- Peptide concentration after 180 min (MeCN 12.7% w/w, pH 6.9, RT): 2.6 mg/mL
- Peptide concentration after 24 h (MeCN 12.7% w/w, pH 6.9, RT): >4.0 mg/mL
- Peptide concentration after 5 min (MeCN 12.7% w/w, pH 7.5, 5° C.): 1.3 mg/mL
- Peptide concentration after 180 min (MeCN 12.7% w/w, pH 7.5, 5° C.): 2.3 mg/mL
- Peptide concentration after 24 h (MeCN 12.7% w/w, pH 7.5, 5° C.): >4.0 mg/mL
- Peptide concentration after 5 min (MeCN 12.7% w/w, pH 7.5, 70° C.): 3.7 mg/mL
- Peptide concentration after 180 min (MeCN 12.7% w/w, pH 7.5, 70° C.): >4.0 mg/mL
- Peptide concentration after 5 min (MeCN 12.7% w/w, pH 7.5, RT): 1.4 mg/mL
- Peptide concentration after 180 min (MeCN 12.7% w/w, pH 7.5, RT): 3.6 mg/mL
- Peptide concentration after 24 h (MeCN 12.7% w/w, pH 7.5, RT): >4.0 mg/mL
- Peptide concentration after 5 min (MeCN 12.7% w/w, pH 8.0, 70° C.): 3.6 mg/mL
- Peptide concentration after 180 min (MeCN 12.7% w/w, pH 8.0, 70° C.): >4.0 mg/mL
- Peptide concentration after 5 min (MeCN 12.7% w/w, pH 8.0, RT): 3.2 mg/mL
- Peptide concentration after 180 min (MeCN 12.7% w/w, pH 8.0, RT): 3.8 mg/mL
- Peptide concentration after 24 h (MeCN 12.7% w/w, pH 8.0, RT): >4.0 mg/mL
- Peptide concentration after 5 min (MeCN 12.7% w/w, pH 8.5, 70° C.): 3.5 mg/mL
- Peptide concentration after 180 min (MeCN 12.7% w/w, pH 8.5, 70° C.): >4.0 mg/mL
- Peptide concentration after 5 min (MeCN 12.7% w/w, pH 8.5, RT): 0.9 mg/mL
- Peptide concentration after 180 min (MeCN 12.7% w/w, pH 8.5, RT): 2.6 mg/mL
- Peptide concentration after 24 h (MeCN 12.7% w/w, pH 8.5, RT): >4.0 mg/mL
- Peptide concentration after 5 min (MeCN 12.7% w/w, pH 9.0, 70° C.): 3.5 mg/mL
- Peptide concentration after 180 min (MeCN 12.7% w/w, pH 9.0, 70° C.): >4.0 mg/mL
- Peptide concentration after 5 min (MeCN 12.7% w/w, pH 9.0, RT): 1.0 mg/mL
- Peptide concentration after 180 min (MeCN 12.7% w/w, pH 9.0, RT): 2.6 mg/mL
- Peptide concentration after 24 h (MeCN 12.7% w/w, pH 9.0, RT): >4.0 mg/mL
- Peptide concentration after 5 min (MeCN 12.7% w/w, pH 9.5, 70° C.): >4.0 mg/mL
- Peptide concentration after 180 min (MeCN 12.7% w/w, pH 9.5, 70° C.): >4.0 mg/mL
- Peptide concentration after 5 min (MeCN 12.7% w/w, pH 9.5, RT): 1.1 mg/mL
- Peptide concentration after 180 min (MeCN 12.7% w/w, pH 9.5, RT): 2.9 mg/mL
- Peptide concentration after 24 h (MeCN 12.7% w/w, pH 9.5, RT): >4.0 mg/mL
- Peptide concentration after 5 min [1]: >4.0 mg/mL
- Peptide concentration after 180 min [1]: >4.0 mg/mL
- Peptide concentration after 5 min (MeCN 12.7% w/w, pH 10.0, RT): 1.0 mg/mL
- Peptide concentration after 180 min (MeCN 12.7% w/w, pH 10.0, RT): 3.3 mg/mL
- Peptide concentration after 24 h (MeCN 12.7% w/w, pH 10.0, RT): >4.0 mg/mL
- Peptide concentration after 5 min [2]: >4.0 mg/mL
- Peptide concentration after 180 min [2]: >4.0 mg/mL
- Peptide concentration after 5 min (MeCN 12.7% w/w, pH 10.5, RT): 1.2 mg/mL
- Peptide concentration after 180 min (MeCN 12.7% w/w, pH 10.5, RT): 3.3 mg/mL
- Peptide concentration after 24 h (MeCN 12.7% w/w, pH 10.5, RT): >4.0 mg/mL
- Peptide concentration after 5 min [3]: 3.3 mg/mL
- Peptide concentration after 180 min [3]: >4.0 mg/mL
- Peptide concentration after 5 min (MeCN 12.7% w/w, pH 11.0, RT): 1.0 mg/mL
- Peptide concentration after 180 min (MeCN 12.7% w/w, pH 11.0, RT): 2.9 mg/mL
- Peptide concentration after 24 h (MeCN 12.7% w/w, pH 11.0, RT): >4.0 mg/mL
- Peptide concentration after 5 min (MeCN 19.1% w/w, pH 3.0, 5° C.): 0.7 mg/mL
